For 32 targets, log2 fold change results are on record in the supplement of paper PMC10849652.

Sequences of proteins named here, by UniProt entry; tags and fusion partners are left off. A change or cut given only in a name is not applied to a line headed by its entry.
UniProt Q9BTM9: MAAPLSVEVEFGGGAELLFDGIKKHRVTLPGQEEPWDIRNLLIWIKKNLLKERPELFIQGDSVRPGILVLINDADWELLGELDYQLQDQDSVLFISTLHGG
UniProt Q15836, whole entry, looked up: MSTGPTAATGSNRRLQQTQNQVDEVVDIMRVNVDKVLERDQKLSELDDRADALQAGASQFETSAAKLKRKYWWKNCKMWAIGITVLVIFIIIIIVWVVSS
UniProt P51809, whole entry, looked up: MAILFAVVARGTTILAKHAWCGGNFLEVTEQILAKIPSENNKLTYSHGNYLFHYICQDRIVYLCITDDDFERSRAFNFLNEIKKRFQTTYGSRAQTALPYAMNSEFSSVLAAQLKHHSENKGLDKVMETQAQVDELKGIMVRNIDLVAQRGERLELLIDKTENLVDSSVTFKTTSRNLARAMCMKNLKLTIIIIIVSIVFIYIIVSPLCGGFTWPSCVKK
UniProt P11172: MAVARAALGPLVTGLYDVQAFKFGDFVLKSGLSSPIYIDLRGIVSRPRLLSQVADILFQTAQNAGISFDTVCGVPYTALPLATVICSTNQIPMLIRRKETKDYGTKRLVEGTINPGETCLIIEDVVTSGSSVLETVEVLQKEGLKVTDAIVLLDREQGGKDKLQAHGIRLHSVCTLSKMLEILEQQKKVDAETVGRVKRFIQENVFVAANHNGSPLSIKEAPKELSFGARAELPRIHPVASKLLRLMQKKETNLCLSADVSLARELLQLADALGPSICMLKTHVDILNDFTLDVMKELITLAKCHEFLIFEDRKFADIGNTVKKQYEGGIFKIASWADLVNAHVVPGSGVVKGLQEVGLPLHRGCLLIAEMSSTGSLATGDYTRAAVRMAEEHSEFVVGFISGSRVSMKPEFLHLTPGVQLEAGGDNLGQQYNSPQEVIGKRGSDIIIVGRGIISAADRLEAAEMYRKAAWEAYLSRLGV
UniProt O60701: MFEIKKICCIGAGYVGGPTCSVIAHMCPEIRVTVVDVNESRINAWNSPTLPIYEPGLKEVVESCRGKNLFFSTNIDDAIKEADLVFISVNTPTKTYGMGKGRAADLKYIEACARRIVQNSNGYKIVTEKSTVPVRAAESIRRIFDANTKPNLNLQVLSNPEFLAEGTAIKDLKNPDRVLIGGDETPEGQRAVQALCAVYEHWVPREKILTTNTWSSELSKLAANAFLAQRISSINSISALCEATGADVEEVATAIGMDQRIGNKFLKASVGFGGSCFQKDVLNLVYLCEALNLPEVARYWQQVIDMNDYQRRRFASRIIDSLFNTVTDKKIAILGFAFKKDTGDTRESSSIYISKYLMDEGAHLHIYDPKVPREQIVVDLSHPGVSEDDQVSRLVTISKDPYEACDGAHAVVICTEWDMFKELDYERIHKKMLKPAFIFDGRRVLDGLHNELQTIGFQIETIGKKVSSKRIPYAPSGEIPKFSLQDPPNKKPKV
UniProt P31930: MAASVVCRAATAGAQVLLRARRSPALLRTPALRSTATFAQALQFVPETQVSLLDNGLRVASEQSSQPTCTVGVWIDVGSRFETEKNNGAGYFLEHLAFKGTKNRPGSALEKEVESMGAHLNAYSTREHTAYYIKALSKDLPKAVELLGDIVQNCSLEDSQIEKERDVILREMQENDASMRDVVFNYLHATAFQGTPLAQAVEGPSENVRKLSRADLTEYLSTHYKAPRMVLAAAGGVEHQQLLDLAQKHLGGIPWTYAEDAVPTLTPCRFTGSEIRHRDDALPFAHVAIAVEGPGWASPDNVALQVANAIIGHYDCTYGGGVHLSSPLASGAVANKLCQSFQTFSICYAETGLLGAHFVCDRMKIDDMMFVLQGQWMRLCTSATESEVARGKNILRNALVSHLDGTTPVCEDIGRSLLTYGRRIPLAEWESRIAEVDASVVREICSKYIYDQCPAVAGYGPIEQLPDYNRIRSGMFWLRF
UniProt Q9HAU5: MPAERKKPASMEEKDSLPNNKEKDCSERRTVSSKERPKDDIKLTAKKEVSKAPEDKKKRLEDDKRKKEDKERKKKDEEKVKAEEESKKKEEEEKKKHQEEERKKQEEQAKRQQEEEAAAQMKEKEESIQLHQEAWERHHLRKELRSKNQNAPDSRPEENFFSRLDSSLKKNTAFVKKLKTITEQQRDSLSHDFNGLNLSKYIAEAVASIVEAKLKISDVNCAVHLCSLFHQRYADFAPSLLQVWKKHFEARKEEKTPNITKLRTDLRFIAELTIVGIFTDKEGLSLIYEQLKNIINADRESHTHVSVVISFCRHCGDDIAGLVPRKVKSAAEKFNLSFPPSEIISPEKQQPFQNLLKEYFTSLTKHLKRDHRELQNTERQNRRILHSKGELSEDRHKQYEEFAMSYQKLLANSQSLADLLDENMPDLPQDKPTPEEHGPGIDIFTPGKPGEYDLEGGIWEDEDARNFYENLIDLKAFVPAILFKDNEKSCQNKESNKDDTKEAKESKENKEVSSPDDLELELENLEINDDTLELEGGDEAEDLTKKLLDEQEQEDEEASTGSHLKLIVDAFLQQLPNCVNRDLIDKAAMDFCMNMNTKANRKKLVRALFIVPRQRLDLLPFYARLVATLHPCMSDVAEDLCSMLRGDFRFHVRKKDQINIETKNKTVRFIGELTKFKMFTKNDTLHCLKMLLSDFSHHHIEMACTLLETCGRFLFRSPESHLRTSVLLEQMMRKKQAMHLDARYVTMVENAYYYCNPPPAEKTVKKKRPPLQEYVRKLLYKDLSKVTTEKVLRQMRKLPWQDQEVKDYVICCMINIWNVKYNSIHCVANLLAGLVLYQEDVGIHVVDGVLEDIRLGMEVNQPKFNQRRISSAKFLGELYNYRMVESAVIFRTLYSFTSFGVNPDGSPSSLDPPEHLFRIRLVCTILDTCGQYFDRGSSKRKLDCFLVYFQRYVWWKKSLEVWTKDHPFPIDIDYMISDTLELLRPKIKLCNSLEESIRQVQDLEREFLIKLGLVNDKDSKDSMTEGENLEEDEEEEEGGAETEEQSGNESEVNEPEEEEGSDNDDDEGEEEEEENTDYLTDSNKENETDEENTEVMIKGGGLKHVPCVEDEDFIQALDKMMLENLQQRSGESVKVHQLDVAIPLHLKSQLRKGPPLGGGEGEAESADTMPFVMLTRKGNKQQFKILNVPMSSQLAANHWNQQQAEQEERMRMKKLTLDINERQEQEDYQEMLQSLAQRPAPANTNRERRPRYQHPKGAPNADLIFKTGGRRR
UniProt Q9Y277: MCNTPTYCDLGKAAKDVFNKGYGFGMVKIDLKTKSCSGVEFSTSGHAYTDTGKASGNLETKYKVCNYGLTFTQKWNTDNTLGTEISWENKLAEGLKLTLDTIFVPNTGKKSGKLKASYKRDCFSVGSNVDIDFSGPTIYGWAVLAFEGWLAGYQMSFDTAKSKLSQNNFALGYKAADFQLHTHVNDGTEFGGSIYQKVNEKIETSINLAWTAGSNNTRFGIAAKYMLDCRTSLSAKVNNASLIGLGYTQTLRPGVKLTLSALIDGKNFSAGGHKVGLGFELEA
UniProt P47985: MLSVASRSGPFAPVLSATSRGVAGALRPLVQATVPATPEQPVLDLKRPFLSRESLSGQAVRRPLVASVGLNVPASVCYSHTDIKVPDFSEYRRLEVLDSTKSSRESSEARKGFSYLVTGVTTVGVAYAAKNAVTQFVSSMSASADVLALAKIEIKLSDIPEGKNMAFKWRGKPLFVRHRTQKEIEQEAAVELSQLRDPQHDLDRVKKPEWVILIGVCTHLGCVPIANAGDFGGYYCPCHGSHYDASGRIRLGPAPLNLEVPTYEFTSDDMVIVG
UniProt Q53GS9: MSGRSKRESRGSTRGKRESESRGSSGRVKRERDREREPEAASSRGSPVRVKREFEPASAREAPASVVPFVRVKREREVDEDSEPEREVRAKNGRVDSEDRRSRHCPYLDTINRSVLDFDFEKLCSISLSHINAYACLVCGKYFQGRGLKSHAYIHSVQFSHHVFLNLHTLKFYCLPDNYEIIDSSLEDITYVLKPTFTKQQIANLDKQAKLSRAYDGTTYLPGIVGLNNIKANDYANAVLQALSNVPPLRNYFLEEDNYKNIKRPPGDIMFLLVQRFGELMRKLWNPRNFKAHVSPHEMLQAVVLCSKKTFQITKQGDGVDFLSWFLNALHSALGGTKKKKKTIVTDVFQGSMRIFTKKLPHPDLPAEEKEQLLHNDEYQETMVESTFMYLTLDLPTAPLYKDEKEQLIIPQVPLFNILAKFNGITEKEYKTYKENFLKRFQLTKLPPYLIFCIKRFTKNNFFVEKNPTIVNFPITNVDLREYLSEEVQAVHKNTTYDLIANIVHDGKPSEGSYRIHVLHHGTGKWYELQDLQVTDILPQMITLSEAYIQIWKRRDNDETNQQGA
UniProt Q96BW1: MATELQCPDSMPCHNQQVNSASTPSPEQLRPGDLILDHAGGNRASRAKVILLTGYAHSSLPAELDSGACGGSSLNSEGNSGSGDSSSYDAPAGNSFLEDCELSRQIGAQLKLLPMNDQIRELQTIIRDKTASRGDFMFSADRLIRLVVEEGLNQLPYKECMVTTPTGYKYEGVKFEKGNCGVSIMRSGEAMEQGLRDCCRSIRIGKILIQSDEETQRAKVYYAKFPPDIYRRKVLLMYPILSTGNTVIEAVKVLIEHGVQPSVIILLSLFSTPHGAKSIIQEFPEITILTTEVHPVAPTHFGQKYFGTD
UniProt Q92995: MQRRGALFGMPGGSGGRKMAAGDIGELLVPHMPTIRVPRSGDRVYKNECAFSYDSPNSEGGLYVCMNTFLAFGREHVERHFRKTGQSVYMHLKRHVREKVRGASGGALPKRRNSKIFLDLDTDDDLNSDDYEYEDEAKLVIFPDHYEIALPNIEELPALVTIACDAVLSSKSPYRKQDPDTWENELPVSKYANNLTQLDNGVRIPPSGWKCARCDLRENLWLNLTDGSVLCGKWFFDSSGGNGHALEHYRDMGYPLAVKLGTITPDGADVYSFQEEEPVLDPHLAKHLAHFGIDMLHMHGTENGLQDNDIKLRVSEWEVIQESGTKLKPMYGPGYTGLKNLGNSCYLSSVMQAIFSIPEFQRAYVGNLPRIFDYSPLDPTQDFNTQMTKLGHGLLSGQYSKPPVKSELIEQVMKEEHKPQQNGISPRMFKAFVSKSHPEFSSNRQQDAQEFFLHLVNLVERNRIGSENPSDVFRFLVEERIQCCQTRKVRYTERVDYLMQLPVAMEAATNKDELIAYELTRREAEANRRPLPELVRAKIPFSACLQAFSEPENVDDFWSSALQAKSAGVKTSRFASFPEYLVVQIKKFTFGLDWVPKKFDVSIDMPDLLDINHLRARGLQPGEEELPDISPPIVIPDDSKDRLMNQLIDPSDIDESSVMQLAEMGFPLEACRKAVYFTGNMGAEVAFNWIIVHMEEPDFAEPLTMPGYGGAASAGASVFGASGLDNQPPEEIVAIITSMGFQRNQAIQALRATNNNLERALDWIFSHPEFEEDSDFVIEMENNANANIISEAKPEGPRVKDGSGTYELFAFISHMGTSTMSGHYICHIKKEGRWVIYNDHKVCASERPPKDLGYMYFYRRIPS
UniProt Q6UW78: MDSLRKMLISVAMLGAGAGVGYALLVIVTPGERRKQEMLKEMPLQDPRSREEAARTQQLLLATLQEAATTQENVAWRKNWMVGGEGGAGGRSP
UniProt Q9Y3A2: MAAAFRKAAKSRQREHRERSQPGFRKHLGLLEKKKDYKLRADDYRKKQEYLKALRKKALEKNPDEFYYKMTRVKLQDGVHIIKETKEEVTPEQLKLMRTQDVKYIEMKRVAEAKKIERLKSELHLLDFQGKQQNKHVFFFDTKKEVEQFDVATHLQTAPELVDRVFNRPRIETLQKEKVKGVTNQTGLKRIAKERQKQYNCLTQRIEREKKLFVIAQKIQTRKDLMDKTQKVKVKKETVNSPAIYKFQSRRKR
UniProt Q96T88: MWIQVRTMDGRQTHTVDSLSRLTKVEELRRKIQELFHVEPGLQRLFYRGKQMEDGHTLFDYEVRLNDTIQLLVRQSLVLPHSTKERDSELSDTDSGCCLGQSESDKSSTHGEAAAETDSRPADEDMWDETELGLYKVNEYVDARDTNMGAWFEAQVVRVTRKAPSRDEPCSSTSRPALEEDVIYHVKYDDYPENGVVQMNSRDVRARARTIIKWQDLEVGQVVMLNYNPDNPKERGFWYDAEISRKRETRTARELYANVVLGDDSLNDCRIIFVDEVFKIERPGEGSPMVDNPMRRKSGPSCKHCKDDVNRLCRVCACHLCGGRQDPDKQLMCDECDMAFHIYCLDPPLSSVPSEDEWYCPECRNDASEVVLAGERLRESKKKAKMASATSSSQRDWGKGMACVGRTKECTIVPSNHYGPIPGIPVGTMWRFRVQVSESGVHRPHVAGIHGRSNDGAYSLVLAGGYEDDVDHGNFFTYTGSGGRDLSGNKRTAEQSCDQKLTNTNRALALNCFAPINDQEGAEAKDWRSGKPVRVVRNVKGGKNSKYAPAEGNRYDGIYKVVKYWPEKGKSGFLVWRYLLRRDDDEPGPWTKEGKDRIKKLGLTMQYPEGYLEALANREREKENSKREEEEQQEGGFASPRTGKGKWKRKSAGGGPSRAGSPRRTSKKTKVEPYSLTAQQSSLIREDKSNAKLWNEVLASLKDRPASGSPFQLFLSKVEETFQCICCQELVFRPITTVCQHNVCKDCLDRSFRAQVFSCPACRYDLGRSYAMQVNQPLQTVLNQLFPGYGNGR

This is one part of the list.

Compound in this assay: Cc1sc2c(c1C)C(c1ccc(Cl)cc1)=N[C@@H](CC(=O)OC(C)(C)C)c1nnc(C)n1-2
The experiment in a line: log2 fold change, soluble protein after heating vs DMSO (PISA); higher = thermal stabilisation; K562 lysate, 10 uM; active = over 0.2 and 3.5 SD of the protein, either way, in both replicates (recomputed). The method, boiled down: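 K562 pellets were dounce-homogenised in PBS pH 7.4 containing 1 mM MgCl2, and the crude extract, at 1 mg/mL protein, was exposed to 10 μM compound for 30 min. Aliquots were heated for 3 min across 48°C-58°C, pooled, brought to 0.5% NP-40 at 4°C and spun at 21,000xg for 90 min, with the supernatant taken as soluble protein. TMTpro 16plex LC-MS/MS with equalised channel sums quantified that protein. Values are log-two fold changes in thermal stability relative to solvent controls, taken from duplicates.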
On to USE1 (UniProt Q9NZ43), for which the log2 fold change is inactive: -0.109.
For UPF1 (UniProt Q92900), the log2 fold change was inactive: 0.023.
With USO1 isoform 2 (UniProt O60763), the log2 fold change was inactive: 0.004.
Consider USP47 isoform 4 (UniProt Q96K76), for which the log2 fold change was inactive: -0.005.
URM1 isoform 2 (UniProt Q9BTM9): the log2 fold change is inactive: -0.011.
As for USO1 (UniProt O60763), the log2 fold change was inactive: 0.031.
Turning to VAMP3 (UniProt Q15836), the log2 fold change is inactive: 0.04.
As to UQCR11 (UniProt O14957), the log2 fold change is inactive: -0.022.
As to VAMP7 (UniProt P51809), the log2 fold change was inactive: -0.024.
As to UMPS (UniProt P11172), the log2 fold change was inactive: 0.019.
On to USP19 isoform 6 (UniProt O94966), for which the log2 fold change was inactive: 0.001.
On to USP7 (UniProt Q93009), for which the log2 fold change is inactive: 0.007.
As for USP10 isoform 2 (UniProt Q14694), the log2 fold change is inactive: -0.013.
Take VIM (UniProt P08670): the log2 fold change was inactive: 0.007.
On to UGDH (UniProt O60701), for which the log2 fold change is inactive: -0.056.
Take UNC119B (UniProt A6NIH7): the log2 fold change was inactive: -0.198.
With VEZF1 (UniProt Q14119), the log2 fold change was inactive: 0.03.
UIMC1 (UniProt Q96RL1): the log2 fold change is inactive: -0.022.
As for UQCRC1 (UniProt P31930), the log2 fold change is inactive: 0.017.
With VIL1 (UniProt P09327), the log2 fold change was inactive: -0.098.
Under UTP3 (UniProt Q9NQZ2) stands inactive: -0.158; under UPF2 (UniProt Q9HAU5), inactive: 0.009.
Regarding VDAC3 (UniProt Q9Y277), the log2 fold change is inactive: -0.041.
For UQCRFS1 (UniProt P47985), the log2 fold change is inactive: 0.068.
With USP39 (UniProt Q53GS9), the log2 fold change is inactive: -0.022.
Regarding UPRT (UniProt Q96BW1), the log2 fold change is inactive: 0.035.
Consider USP13 (UniProt Q92995), for which the log2 fold change is inactive: 0.083.
With UQCC3 (UniProt Q6UW78), the log2 fold change was inactive: -0.022.
For the target USP48 (UniProt Q86UV5), the log2 fold change is inactive: 0.098.
With UCK2 (UniProt Q9BZX2) the figure was inactive: 0.021; with UTP11 (UniProt Q9Y3A2), inactive: 0.147.
Regarding UHRF1 isoform 2 (UniProt Q96T88), the log2 fold change is inactive: 0.017.
